Where “and” joins values, the source holds several entries; their conditions need not be identical. Equal values may be shown once. Hit rate of the full screen: of about 390,000 compounds, about 610 (0.16%) were called active. The inconclusive results got no clear call from the source; some entries with a clear call stand among them for comparison. The call rests on the fitted dose curve; in most records, active means well fitted inhibition curve with a large enough effect; inconclusive means small, poorly fitted or top-dose-only effect, or effect the other way, or another doubt; inactive means no such curve, though single readings can be large or run the other way. Where the call is inconclusive, the potency comes from a doubtful curve fit.
Experiment: Nrf2 qHTS screen for inhibitors: counterscreen for cytotoxicity
Settings: A549 ARE-Fluc cells, CellTiter-Fluor viability, 18-24 h; series mostly up to 46 µM
Outline: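 A549 ARE_Fluc cells in 5% FBS OPTI-MEM were exposed to compounds in concentration-response for 18-24 h at 37 deg C. Viability was read by CellTiter-Fluor fluorescence (Ex 405/Em 525) after 30 min, before the luciferase read.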
In the case of `CC(C)(C)C1CCc2c(sc(NC(=O)c3cc(C4CC4)on3)c2C#N)C1` (stereo unspecified), the Potency is reported as inconclusive: 0.103 µM [falling, full curve, poor fit]. In the case of `CC1CCN(c2ccc(NC(=O)c3ccc([N+](=O)[O-])o3)cc2)CC1`, the Potency is reported as inconclusive: 23.1 µM [falling, single point]. In the case of `COc1cc(C(=O)N/N=C(\Cc2ncc[nH]2)c2ccccc2)cc(OC)c1OC`, the Potency is reported as inconclusive: 29.1 µM [falling, single point]. With `Cc1ccc(-c2nnc(N3CCC(C)CC3)c3ccccc23)cc1C` the Potency was inconclusive: 16.4 µM [falling, single point]. With `Cc1ccc(-c2nn3c(C)nnc3s2)cc1NC(=O)c1ccc(-c2ccc(Cl)cc2Cl)o1` the Potency was active: 20.6 µM. For `COC(=O)c1c(CCl)noc1C(=O)NCC1CCCO1` (stereo unspecified), the Potency was inconclusive: 18.4 µM [activator, partial curve, poor fit]. With `CC1=C(C#N)C(c2cccnc2)C2=C(CCCC2=O)N1` (stereo unspecified) the Potency was “inactive”. For `COc1ccc(NC(=O)CSc2ccc(-c3ccccn3)nn2)cc1OC`, the Potency was inconclusive: 29.1 µM [falling, single point]. In the case of `CCOc1ccc(C2C(C(=O)OC)=CN(CCOC)C=C2C(=O)OC)cc1`, the Potency is reported as inconclusive: 29.1 µM [activator, single point]. In the case of `CN(C)/C=C/C(=O)c1ccccc1`, the Potency is reported as “inactive”. For `COc1ccc(C2N(S(=O)(=O)c3ccccc3)CCN2S(=O)(=O)c2ccc(C)cc2)cc1` (stereo unspecified), the Potency was inconclusive: 2.24 µM [activator, full curve, poor fit]. For `CSCc1ccc(C(=O)NC(C)c2cnn(-c3ccccn3)c2C)o1` (stereo unspecified), the Potency was “inactive”. In the case of `CC(C)(C)c1cc(CN2CCCC(O)C2)c(O)c(C(C)(C)C)c1` (stereo unspecified), the Potency is reported as inconclusive: 14.6 µM [falling, single point]. For `CC(C)(C)OC(=O)NCCCCCNC(=O)c1nc[nH]c1C(=O)NCc1ccc(CNC(=O)OC(C)(C)C)cc1`, the Potency was inconclusive: 16.4 µM [falling, partial curve, poor fit]. With `CCCCCCSc1ccc([C@H]2N[C@@](C)(C(=O)OC)[C@H]3C(=O)N(C)C(=O)[C@@H]23)cc1` the Potency was “inactive”. For `CSc1ncccc1C(=O)N1CCN(S(=O)(=O)c2cc(C)ccc2C)CC1`, the Potency was “inactive”. In the case of `COc1ccc2cc(CN(CC3CCCO3)C(=S)Nc3ccccc3)c(=O)[nH]c2c1` (stereo unspecified), the Potency is reported as inconclusive: 6.51 µM [falling, full curve]. In the case of `Cc1cc(=O)oc(C)c1C(=O)Nc1ccc(Cl)cn1`, the Potency is reported as inconclusive: 23.1 µM [falling, partial curve, poor fit]. For `COc1cccc(OC)c1C(=O)OCC(=O)Nc1cccnc1Cl`, the Potency was inconclusive: 2.06 µM [activator, full curve, poor fit]. With `COc1ccc2[nH]c3c(NCCC4=CCCCC4)ncnc3c2c1` the Potency was inconclusive: 20.6 µM [falling, single point]. For `CCSc1nnc(NC(=O)NC(CC)(C(F)(F)F)C(F)(F)F)s1`, the Potency was inconclusive: 20.6 µM [falling, single point]. With `COc1ccc(C2C(=O)c3ccccc3C2=Nc2ccc(Br)cc2)cc1` (stereo unspecified) the Potency was inconclusive: 23.1 µM [falling, partial curve, poor fit]. For `CC1CCCN(S(=O)(=O)c2ccc(C(=O)Nc3nnc(-c4ccncc4)o3)cc2)C1` (stereo unspecified), the Potency was inconclusive: 10.3 µM [falling, partial curve]. With `O=C1c2cccc3cc([N+](=O)[O-])cc(c23)C(=O)N1/N=C/c1ccc(O)cc1O` the Potency was active: 23.1 µM. For `CC1CCN(C(=O)CSc2nnc3c(n2)[nH]c2ccccc23)CC1`, the Potency was “inactive”. In the case of `Cc1c(C(=O)NCCc2ccc(Cl)cc2)sc2nc3n(c(=O)c12)CCCC3`, the Potency is reported as inconclusive: 29.1 µM [activator, single point]. In the case of `COc1ccc(-c2noc3c2-c2nc(C(C)C)sc2CC3)cc1`, the Potency is reported as inconclusive: 20.6 µM [activator, partial curve, poor fit]. For `O=C(Nc1c(C(=O)N2CCN(c3ccccc3)CC2)oc2ccccc12)c1ccco1`, the Potency was “inactive”. With `COc1ccc2occ(C(=O)c3cccs3)c2c1` the Potency was “inactive”. With `CCCNC1(C(N)=O)CCN(Cc2ccccc2)CC1` the Potency was “inactive”. With `O=C(Nc1ccc(N2CCN(Cc3ccccc3)CC2)cc1)c1ccccc1[N+](=O)[O-]` the Potency was inconclusive: 7.31 µM [activator, partial curve, poor fit]. With `CC(C)CNC(=O)c1cccc(NC(=O)c2ccc(Cl)c([N+](=O)[O-])c2)c1` the Potency was inconclusive: 29.1 µM [falling, single point]. In the case of `CS(=O)(=O)Nc1ccc(C2=NN(C(=O)c3ccccc3)C(c3cccs3)C2)cc1` (stereo unspecified), the Potency is reported as “inactive”. With `COCC(=O)N1CCN(c2ccc([N+](=O)[O-])cc2)CC1` the Potency was inconclusive: 20.6 µM [falling, single point]. With `CCN1CCN(S(=O)(=O)c2ccc(Cl)c(C(=O)Nc3ccccc3N3CCCCC3)c2)CC1` the Potency was inconclusive: 23.1 µM [falling, partial curve, poor fit]. In the case of `CN(C)S(=O)(=O)c1ccc(C(=O)Oc2cc(=O)[nH]c3ccccc23)cc1`, the Potency is reported as “inactive”. For `CC(CC(=O)N1CCN(c2cccc(Cl)c2)CC1)S(=O)(=O)c1ccc2c(c1)NC(=O)CO2` (stereo unspecified), the Potency was inconclusive: 16.4 µM [falling, partial curve]. In the case of `CCOC(=O)C1=C(C)N=c2s/c(=C/c3cccc([N+](=O)[O-])c3O)c(=O)n2C1c1cc(OC)c(OC)c(OC)c1` (stereo unspecified), the Potency is reported as inconclusive: 16.4 µM [falling, partial curve, poor fit]. For `COc1cccc(C(=O)N/N=C/c2ccc(Oc3ccc([N+](=O)[O-])cn3)c(OC)c2)c1`, the Potency was inconclusive: 23.1 µM [falling, single point]. With `Cc1ccc(S(=O)(=O)N2CCN(C(=O)c3ccco3)CC2)c(C)c1` the Potency was “inactive”. In the case of `CCOCCCn1c(SCC(=O)NCc2ccco2)nc2c(sc3ccccc32)c1=O`, the Potency is reported as inconclusive: 32.6 µM [falling, partial curve, poor fit]. For `Cc1ccc2[nH]c(C)c(/C=N/Nc3nc4ccccc4s3)c2c1`, the Potency was inconclusive: 20.6 µM [falling, single point]. In the case of `Cc1ccc(NC(=O)CN2CCSc3ccc(S(=O)(=O)N4CCCC4)cc32)cc1C`, the Potency is reported as inconclusive: 10.3 µM [falling, partial curve]. With `COc1ccc(OC)c(C(=O)/C=C/c2ccccc2C(F)(F)F)c1` the Potency was inconclusive: 25.9 µM [falling, single point]. With `CC1COC2C(O1)N(S(C)(=O)=O)CCN2S(C)(=O)=O` (stereo unspecified) the Potency was inconclusive: 29.1 µM [activator, partial curve, poor fit]. With `CCOC(=O)N1CCN(c2ccc(S(=O)(=O)N3CCC(C)CC3)cc2[N+](=O)[O-])CC1` the Potency was “inactive”. In the case of `CC(CCCN1CCCC1)Nc1ccnc2cc(Cl)ccc12` (stereo unspecified), the Potency is reported as inconclusive: 20.6 µM [falling, partial curve, poor fit]. For `COc1ccc(-c2nnc3c4ccccc4c(C)nn23)cc1`, the Potency was “inactive”. In the case of `CCOc1ccc(NC(=O)c2cc(=O)c3ccc(C)c(C)c3o2)cc1`, the Potency is reported as “inactive”. With `N#Cc1c(NC(=O)CSc2ncn[nH]2)sc2c1CCCC2` the Potency was “inactive”. For `CN(C)C(=O)c1ccc2c(c1[N+](=O)[O-])C(=O)c1ccccc1C2=O`, the Potency was inconclusive: 20.6 µM [falling, single point]. For `COc1ccc(S(=O)(=O)Nc2ccc3c(c2)CC(=O)N([C@@H](C)CO)C[C@@H](C)[C@@H](CN(C)Cc2ccccc2)O3)cc1`, the Potency was inconclusive: 32.6 µM [falling, partial curve, poor fit]. With `COc1ccc2c(c1)cc1c(=O)n(CC(=O)NCCCc3ccccc3)nc(C)n12` the Potency was “inactive”. In the case of `COC(=O)Cn1c(CN2CCN(c3ccc(F)cc3)CC2)nc2c1c(=O)n(C)c(=O)n2C`, the Potency is reported as “inactive”. In the case of `COC(=O)c1cc(NC(=O)Cn2nc(-c3ccc(C)c(C)c3)ccc2=O)cc(C(=O)OC)c1`, the Potency is reported as “inactive”. In the case of `CC(/C=C1\SC(=S)N(CC(=O)O)C1=O)=C\c1ccccc1`, the Potency is reported as inconclusive: 20.6 µM [falling, partial curve, poor fit]. In the case of `CCN(CCCNC(=O)CNC(=O)c1nn(-c2ccc(OC)cc2)c(=O)c2ccccc12)c1cccc(C)c1`, the Potency is reported as inconclusive: 18.4 µM [falling, partial curve, poor fit]. With `COc1ccccc1CNC(=O)[C@H](C)NC(=O)C1CCN(C(=O)[C@@H](N)CC(C)C)CC1` the Potency was inconclusive: 14.6 µM [falling, partial curve, poor fit]. With `Cc1c2cnn(CC(=O)Nc3c(F)c(F)cc(F)c3F)c(=O)c2c(C)n1Cc1ccccc1F` the Potency was “inactive”. With `Cc1ccc([N+](=O)[O-])cc1NC(=O)c1ccc(C(C)(C)C)cc1` the Potency was inconclusive: 32.6 µM [falling, partial curve, poor fit]. In the case of `CCc1ccc(NS(=O)(=O)c2ccc3[nH]cc(C(=O)NC4CCCC4)c(=O)c3c2)cc1`, the Potency is reported as inconclusive: 20.6 µM [falling, single point]. For `CN1/C(=C\C(=O)c2ccco2)C(C)(C)c2ccccc21`, the Potency was inconclusive: 14.6 µM [falling, partial curve, poor fit]. In the case of `Cc1nnc(NC(=O)C2CCN(C(=O)c3ccco3)CC2)s1`, the Potency is reported as “inactive”. For `CCc1ccc(CNC(=O)c2ccc3c(c2)nc2n3CCOC2)cc1`, the Potency was “inactive”. With `COc1cc(OC)c2ccc(=O)oc2c1C(CCN1CCCC(C)C1)c1ccc2c(c1)OCO2` (stereo unspecified) the Potency was active: 8.2 µM and active: 16.4 µM. In the case of `COC(=O)/C(=C\c1cc(OC)c(OC)c(OC)c1)c1nc2ccccc2[nH]1`, the Potency is reported as inconclusive: 18.4 µM [falling, partial curve, poor fit].
Potency means the concentration at half of the fitted maximal effect.
